Drawing on the supplement of paper PMC10849652, this text covers log2 fold change for 40 targets.

Chains of the proteins cited; added tags and fusions are not shown. Lines headed by an entry give the natural chain unless they say otherwise; changes in a name come on top.
UniProt Q99700, whole entry, looked up: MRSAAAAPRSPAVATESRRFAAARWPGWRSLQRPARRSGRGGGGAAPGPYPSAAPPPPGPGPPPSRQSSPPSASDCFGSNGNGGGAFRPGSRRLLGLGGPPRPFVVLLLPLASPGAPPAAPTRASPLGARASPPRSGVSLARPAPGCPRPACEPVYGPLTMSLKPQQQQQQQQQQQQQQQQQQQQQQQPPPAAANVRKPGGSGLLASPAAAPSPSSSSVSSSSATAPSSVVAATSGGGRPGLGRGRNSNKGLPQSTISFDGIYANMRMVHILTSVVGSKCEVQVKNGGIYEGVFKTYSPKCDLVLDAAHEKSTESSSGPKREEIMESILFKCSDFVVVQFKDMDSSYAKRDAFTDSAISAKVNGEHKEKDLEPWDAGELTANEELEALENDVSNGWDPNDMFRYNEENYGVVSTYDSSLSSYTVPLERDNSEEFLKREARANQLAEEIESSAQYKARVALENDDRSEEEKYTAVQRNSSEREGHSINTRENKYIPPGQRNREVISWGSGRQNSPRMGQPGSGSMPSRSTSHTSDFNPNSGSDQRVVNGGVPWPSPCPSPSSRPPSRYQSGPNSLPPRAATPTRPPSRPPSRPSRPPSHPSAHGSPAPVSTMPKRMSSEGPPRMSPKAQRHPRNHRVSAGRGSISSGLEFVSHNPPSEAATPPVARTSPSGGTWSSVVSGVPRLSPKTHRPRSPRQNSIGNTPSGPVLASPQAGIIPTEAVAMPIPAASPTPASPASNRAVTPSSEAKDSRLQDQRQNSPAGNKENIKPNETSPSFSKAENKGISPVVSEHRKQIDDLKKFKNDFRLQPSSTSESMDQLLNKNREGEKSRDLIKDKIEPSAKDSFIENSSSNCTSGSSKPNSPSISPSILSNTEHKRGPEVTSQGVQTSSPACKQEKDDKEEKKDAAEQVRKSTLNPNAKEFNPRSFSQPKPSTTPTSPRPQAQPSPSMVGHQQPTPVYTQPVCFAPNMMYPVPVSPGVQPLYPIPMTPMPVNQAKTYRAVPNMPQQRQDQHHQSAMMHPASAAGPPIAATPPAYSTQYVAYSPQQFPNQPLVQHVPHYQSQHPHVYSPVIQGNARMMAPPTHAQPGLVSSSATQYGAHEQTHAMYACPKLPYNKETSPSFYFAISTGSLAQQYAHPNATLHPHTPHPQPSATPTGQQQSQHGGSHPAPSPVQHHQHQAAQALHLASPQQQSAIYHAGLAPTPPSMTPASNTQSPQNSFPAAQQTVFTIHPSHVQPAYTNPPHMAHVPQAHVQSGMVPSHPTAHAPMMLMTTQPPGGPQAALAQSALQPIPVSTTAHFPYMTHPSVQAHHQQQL
UniProt O14867: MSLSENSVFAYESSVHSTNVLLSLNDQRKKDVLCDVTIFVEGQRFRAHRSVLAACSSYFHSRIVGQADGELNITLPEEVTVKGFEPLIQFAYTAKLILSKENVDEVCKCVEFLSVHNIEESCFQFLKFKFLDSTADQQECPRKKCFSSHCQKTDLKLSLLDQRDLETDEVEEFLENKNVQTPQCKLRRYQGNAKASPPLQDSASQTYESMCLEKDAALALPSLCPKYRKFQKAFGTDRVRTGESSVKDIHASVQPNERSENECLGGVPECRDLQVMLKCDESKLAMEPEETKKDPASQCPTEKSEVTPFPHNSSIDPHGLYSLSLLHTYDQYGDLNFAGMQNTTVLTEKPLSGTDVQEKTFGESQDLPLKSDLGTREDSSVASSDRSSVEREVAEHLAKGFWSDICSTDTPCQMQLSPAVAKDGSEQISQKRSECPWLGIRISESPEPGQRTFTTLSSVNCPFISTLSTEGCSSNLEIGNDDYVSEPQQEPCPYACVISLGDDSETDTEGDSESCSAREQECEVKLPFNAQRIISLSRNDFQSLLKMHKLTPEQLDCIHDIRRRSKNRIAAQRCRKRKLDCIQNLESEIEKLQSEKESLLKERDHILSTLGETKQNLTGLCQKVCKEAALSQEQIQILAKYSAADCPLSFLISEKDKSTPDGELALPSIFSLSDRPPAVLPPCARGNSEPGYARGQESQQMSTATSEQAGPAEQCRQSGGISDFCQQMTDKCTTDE
UniProt Q9NUP1: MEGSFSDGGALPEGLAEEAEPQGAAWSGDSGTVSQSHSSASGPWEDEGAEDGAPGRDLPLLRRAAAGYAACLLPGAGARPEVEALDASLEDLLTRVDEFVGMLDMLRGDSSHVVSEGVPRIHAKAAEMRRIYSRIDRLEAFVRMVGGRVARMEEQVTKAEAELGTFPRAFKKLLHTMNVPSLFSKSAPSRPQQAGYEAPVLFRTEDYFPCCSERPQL
UniProt Q9Y679: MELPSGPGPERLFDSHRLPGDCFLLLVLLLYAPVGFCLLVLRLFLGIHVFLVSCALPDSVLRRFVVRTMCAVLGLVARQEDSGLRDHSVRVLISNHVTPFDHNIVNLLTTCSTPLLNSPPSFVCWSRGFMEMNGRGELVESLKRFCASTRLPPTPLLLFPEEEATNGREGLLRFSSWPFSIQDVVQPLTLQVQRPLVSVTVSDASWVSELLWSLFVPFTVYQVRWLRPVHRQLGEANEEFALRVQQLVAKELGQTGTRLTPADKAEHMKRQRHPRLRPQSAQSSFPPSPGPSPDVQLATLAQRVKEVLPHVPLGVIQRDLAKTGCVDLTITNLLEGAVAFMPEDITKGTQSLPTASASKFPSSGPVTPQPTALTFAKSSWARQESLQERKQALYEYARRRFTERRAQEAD
UniProt Q8WWM7: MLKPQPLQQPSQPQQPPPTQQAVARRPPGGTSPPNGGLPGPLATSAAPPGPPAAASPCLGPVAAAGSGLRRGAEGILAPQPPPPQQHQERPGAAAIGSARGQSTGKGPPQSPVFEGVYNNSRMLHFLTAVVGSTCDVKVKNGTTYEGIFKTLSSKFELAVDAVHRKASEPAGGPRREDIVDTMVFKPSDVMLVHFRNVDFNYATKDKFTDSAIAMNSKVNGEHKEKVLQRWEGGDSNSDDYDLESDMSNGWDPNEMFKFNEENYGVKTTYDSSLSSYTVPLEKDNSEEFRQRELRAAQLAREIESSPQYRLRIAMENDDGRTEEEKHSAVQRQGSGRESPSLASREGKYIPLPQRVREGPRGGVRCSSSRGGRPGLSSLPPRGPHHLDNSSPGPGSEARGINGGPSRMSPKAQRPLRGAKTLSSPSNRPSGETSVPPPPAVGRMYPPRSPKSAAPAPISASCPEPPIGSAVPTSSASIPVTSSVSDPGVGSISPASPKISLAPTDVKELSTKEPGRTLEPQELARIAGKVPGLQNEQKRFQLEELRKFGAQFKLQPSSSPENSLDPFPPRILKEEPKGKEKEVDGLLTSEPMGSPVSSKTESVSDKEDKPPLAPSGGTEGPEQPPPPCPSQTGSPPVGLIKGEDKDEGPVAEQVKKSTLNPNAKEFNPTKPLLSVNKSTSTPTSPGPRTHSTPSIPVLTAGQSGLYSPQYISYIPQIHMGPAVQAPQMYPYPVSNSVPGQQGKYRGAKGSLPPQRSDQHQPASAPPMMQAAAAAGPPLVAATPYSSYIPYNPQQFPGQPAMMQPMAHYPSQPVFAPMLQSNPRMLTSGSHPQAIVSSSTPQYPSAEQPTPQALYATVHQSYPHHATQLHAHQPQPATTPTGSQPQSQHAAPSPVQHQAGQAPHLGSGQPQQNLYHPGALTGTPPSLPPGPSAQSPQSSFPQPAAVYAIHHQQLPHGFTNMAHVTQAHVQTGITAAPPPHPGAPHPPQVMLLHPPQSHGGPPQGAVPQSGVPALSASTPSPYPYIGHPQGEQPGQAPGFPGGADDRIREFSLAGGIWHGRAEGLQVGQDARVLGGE
UniProt Q67FW5: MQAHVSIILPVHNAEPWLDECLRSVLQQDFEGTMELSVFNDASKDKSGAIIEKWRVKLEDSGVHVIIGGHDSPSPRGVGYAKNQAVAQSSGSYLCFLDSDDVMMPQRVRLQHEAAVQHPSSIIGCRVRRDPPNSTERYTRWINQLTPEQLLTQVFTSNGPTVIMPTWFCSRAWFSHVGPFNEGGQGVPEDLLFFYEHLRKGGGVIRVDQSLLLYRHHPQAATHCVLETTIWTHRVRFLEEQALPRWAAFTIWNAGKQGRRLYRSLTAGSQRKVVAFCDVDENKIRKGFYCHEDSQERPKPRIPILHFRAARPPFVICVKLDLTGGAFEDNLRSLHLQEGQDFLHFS
UniProt O75934: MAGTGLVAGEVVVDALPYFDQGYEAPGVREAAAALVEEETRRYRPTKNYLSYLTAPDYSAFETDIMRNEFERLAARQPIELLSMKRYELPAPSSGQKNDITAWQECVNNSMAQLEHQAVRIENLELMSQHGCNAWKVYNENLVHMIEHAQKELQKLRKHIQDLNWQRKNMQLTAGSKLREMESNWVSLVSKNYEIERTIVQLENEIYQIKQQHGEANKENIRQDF
UniProt Q9UL45: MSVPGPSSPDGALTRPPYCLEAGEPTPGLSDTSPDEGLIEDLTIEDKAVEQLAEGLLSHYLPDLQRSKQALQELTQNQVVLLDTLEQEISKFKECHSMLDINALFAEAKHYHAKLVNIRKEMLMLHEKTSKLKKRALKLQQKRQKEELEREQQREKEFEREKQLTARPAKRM
UniProt P53004: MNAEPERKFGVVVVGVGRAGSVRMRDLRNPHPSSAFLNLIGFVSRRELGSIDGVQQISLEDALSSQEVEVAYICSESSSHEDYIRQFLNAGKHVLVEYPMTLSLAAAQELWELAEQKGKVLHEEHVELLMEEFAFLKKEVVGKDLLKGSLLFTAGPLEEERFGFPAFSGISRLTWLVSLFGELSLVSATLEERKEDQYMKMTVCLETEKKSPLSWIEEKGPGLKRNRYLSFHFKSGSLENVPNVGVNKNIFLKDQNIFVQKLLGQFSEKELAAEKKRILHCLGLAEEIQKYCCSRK
UniProt P46736, whole entry, looked up: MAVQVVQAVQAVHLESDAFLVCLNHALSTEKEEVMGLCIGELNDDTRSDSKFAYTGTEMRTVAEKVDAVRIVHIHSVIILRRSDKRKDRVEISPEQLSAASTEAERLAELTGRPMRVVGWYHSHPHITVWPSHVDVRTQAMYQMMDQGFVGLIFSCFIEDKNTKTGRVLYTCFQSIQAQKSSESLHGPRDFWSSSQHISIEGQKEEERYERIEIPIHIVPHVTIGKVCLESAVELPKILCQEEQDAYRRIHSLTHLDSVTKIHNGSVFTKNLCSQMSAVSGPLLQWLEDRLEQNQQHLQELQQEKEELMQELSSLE
UniProt Q92560: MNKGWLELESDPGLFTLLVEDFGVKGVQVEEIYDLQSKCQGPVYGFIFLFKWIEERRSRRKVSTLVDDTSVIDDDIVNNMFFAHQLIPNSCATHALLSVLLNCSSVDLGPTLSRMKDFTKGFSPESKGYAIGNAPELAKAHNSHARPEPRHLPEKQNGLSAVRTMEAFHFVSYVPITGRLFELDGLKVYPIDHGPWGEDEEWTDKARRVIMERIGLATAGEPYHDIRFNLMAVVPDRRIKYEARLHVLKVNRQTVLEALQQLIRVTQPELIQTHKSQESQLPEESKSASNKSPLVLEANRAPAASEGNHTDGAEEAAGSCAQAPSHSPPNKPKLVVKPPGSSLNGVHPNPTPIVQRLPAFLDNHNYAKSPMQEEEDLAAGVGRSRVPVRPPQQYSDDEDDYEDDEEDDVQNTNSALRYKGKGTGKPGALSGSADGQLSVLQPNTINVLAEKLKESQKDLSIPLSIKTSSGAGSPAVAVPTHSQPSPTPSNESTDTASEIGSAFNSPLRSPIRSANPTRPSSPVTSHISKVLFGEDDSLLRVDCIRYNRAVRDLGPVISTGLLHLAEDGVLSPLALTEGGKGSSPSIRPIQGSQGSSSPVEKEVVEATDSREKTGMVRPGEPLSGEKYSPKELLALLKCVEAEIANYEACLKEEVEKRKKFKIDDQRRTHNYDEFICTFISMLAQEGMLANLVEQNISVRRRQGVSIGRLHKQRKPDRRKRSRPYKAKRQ
UniProt Q6QNY1: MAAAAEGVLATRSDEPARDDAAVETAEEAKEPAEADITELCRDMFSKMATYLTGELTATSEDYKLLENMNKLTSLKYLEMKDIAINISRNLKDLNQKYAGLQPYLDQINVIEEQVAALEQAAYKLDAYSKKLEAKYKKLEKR
UniProt Q9UHQ4: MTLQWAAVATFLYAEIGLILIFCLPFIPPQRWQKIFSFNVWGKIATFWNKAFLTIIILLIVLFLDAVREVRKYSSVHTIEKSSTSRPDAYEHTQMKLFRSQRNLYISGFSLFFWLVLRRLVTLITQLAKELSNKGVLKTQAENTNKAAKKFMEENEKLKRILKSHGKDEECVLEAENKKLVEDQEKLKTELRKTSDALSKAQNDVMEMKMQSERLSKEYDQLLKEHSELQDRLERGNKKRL
UniProt Q96GS4: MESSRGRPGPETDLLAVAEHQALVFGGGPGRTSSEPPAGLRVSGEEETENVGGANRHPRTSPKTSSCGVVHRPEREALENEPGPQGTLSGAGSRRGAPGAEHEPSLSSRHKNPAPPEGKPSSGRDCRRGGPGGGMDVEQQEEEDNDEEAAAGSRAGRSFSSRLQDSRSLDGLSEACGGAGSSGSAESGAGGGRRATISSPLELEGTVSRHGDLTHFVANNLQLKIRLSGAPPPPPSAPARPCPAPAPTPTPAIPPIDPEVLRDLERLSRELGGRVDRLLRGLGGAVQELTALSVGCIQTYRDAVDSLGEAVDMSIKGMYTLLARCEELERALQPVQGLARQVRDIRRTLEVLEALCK

The list shows a part of the results.

Compound in this test: CC(C)N(C[C@H]1O[C@@H](n2cnc3c(N)ncnc32)[C@H](O)[C@@H]1O)[C@H]1C[C@@H](CCc2nc3cc(C(C)(C)C)ccc3[nH]2)C1 [pinometostat]
As to the kind of experiment: log2 fold change, soluble protein after heating vs DMSO (PISA); higher = thermal stabilisation; K562 cells, 10 uM, 30 min; active = over 0.2 and 3.5 SD of the protein, either way, in both replicates (recomputed). An outline of the steps:
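Soluble protein was quantified by TMTpro 16plex LC-MS/MS after channel sums were equalised. It was obtained as the supernatant after 21,000xg for 90 min from pooled aliquots of K562 cells (2×10^6 cells/mL, 10 μM compound, 30 min) heated for 3 min across 48°C-58°C and extracted in PBS with 0.5% NP-40 at 4°C. Thermal stability values are relative to control samples and come from duplicates. They are given as log2 fold changes.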
On to ATXN2 (UniProt Q99700), for which the log2 fold change is inactive: -0.001.

In the case of BCAR1 isoform 6 (UniProt P56945), the log2 fold change is inactive: 0.122.

BPGM (UniProt P07738): the log2 fold change was inactive: -0.078.

Take BRAP (UniProt Q7Z569): the log2 fold change is inactive: 0.033.

Take BAX isoform 2 (UniProt Q07812): the log2 fold change was inactive: -0.073.

For BPHL (UniProt Q86WA6), the log2 fold change is inactive: 0.061.

For BCL2L2 isoform 2 (UniProt Q92843), the log2 fold change is inactive: 0.017.

On to BACH1 (UniProt O14867), for which the log2 fold change was inactive: -0.003.

Consider BAIAP2L1 (UniProt Q9UHR4), for which the log2 fold change is inactive: -0.007.

Consider BCCIP (UniProt Q9P287), for which the log2 fold change was inactive: 0.073.

In the case of BLOC1S4 (UniProt Q9NUP1), the log2 fold change was inactive: -0.076.

With BICD2 isoform 2 (UniProt Q8TD16), the log2 fold change was inactive: -0.058.

As for BAG6 isoform 3 (UniProt P46379), the log2 fold change is inactive: 0.041.

For BRIX1 (UniProt Q8TDN6), the log2 fold change was inactive: 0.361.

On to AUP1 (UniProt Q9Y679), for which the log2 fold change was inactive: 0.011.

Take B4GALT1 (UniProt P15291): the log2 fold change is inactive: -0.051.

BIRC2 (UniProt Q13490): the log2 fold change is inactive: 0.

Take ATXN7L3B (UniProt Q96GX2): the log2 fold change was inactive: 0.015.

As to ATXN2L (UniProt Q8WWM7), the log2 fold change was inactive: 0.037.

For BORCS5 (UniProt Q969J3), the log2 fold change was inactive: -0.009.

As to B3GAT3 (UniProt O94766), the log2 fold change is inactive: 0.029.

Turning to BNIP2 (UniProt J3KN59), the log2 fold change is inactive: -0.028.

B3GNTL1 (UniProt Q67FW5): the log2 fold change was inactive: -0.046.

With BCAS2 (UniProt O75934), the log2 fold change is inactive: -0.001.

Take BLOC1S6 (UniProt Q9UL45): the log2 fold change was inactive: -0.063.

In the case of BLVRA (UniProt P53004), the log2 fold change is inactive: -0.004.

As for BOP1 (UniProt Q14137), the log2 fold change is inactive: 0.021.

Turning to BCS1L (UniProt Q9Y276), the log2 fold change was inactive: 0.016.

Consider BRCC3 (UniProt P46736), for which the log2 fold change is inactive: 0.047.

In the case of BCCIP isoform 2 (UniProt Q9P287), the log2 fold change is inactive: 0.029.

Take BOD1L1 (UniProt Q8NFC6): the log2 fold change was inactive: 0.05.

Turning to B3GNT2 (UniProt Q9NY97), the log2 fold change is inactive: 0.045.

Turning to B4GALT3 (UniProt O60512), the log2 fold change was inactive: 0.011.

Consider AVL9 (UniProt Q8NBF6), for which the log2 fold change is inactive: -0.055.

Take BAP1 (UniProt Q92560): the log2 fold change is inactive: 0.163.

For the target BLOC1S2 (UniProt Q6QNY1), the log2 fold change is inactive: 0.053.

For the target BCAP29 isoform 2 (UniProt Q9UHQ4), the log2 fold change was inactive: -0.012.

Regarding BRAT1 (UniProt Q6PJG6), the log2 fold change was inactive: 0.001.

As for BORCS6 (UniProt Q96GS4), the log2 fold change was inactive: -0.042.

Consider AURKA (UniProt O14965), for which the log2 fold change is inactive: 0.033.
